# Results are given in words; binding and its absence hold for the method and conditions named. In cells and extracts the contact can be indirect. Some entries that bind do so weakly or less than the wild type.
# T1: Flavin-containing monooxygenase 5 (human (endogenous in L02)) (UniProt P49326)
# T1 sequence: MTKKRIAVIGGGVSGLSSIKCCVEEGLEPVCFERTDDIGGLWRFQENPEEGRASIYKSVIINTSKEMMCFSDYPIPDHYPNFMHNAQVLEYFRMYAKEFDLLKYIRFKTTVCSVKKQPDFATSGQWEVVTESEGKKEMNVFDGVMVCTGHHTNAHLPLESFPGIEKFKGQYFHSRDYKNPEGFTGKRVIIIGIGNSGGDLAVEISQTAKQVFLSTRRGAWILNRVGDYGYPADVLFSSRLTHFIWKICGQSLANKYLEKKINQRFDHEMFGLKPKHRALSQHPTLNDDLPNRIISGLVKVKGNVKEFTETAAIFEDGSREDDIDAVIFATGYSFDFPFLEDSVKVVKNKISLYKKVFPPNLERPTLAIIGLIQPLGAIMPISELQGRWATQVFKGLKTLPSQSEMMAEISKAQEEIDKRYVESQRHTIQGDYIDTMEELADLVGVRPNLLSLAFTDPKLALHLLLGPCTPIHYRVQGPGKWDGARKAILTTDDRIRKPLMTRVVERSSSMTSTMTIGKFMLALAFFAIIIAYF
# B1: PPARα (protein, UniProt Q07869 1-468)
# chain: MVDTESPLCPLSPLEAGDLESPLSEEFLQEMGNIQEISQSIGEDSSGSFGFTEYQYLGSCPGSDGSVITDTLSPASSPSSVTYPVVPGSVDESPSGALNIECRICGDKASGYHYGVHACEGCKGFFRRTIRLKLVYDKCDRSCKIQKKNRNKCQYCRFHKCLSVGMSHNAIRFGRMPRSEKAKLKAEILTCEHDIEDSETADLKSLAKRIYEAYLKNFNMNKVKARVILSGKASNNPPFVIHDMETLCMAEKTLVAKLVANGIQNKEAEVRIFHCCQCTSVETVTELTEFAKAIPGFANLDLNDQVTLLKYGVYEAIFAMLSSVMNKDGMLVAYGNGFITREFLKSLRKPFCDIMEPKFDFAMKFNALELDDSDISLFVAAIICCGDRPGLLNVGHIEKMQEGIVHVLRLHLQSNHPDDIFLFPKLLQKMADLRQLVTEHAQLVQIIKKTESDAALHPLLQEIYRDMY
# Target: T1, Flavin-containing monooxygenase 5 (human (endogenous in L02))
# Experiment: co-IP; anti-Fmo5 coupled to protein A-Sepharose beads in RIPA buffer overnight at 4 °C, added to L02 cell lysate for 2 h at 4 °C; IP samples blotted for Fmo5 and PPARα
binder,measurement,value
B1,binding,binds
